Measured values published in US20230174624A1, “FERRITIN VARIANTS WITH INCREASED STABILITY, COMPLEXATION ABILITY AND TRANSFERRIN RECEPTOR AFFINITY” (CELLIS AG, priority 2020, published 2023).

Assay: Doxorubicin encapsulation (loading) efficiency
Type: physicochemical

| Substance | average doxorubicin molecules loaded per cage [molecules] |
| --- | --- |
| Q11E: human H ferritin mutant Q11E (TRBD SEQ ID NO. 05); in examples 3-8 also K54E, K72E, K87Q, K144E, C91S, C103S, C131S (MTTASTSQVRENYHQDSEAA; listed as Homo sapiens) | 55 |
| Q11E-Q15E: human H ferritin mutant Q11E Q15E (TRBD SEQ ID NO. 12); in examples 3-8 also K54E, K72E, K87Q, K144E, C91S, C103S (MTTASTSQVRENYHEDSEAA; listed as Homo sapiens) | 63 |
